{"sequences": {"note": "Sequences of proteins named here, by UniProt entry; tags and fusion partners are left off.", "UniProt Q0JBA9, entry or part of it": "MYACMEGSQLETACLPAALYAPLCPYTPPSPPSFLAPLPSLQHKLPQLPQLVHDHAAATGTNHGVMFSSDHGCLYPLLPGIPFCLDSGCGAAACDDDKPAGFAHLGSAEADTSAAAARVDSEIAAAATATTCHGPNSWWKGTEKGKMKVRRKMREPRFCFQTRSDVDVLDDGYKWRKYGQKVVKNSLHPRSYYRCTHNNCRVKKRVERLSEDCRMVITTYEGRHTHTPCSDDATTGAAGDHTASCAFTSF"}, "source": "paper PMC7819943", "about": "“Rice protein-binding microarrays: a tool to detect cis-acting elements near promoter regions in rice”", "note": "Some of the results follow.", "data": [{"molecular_target": "OsWRKY34 (Oryza sativa, UniProt Q0JBA9 1-250)", "test": "protein-binding microarray (RPBM); PBS, 2% BSA, 51.3 ng/ul salmon testes DNA, 50 uM zinc acetate, 200 nM TF, 25 C, 1 h; high values mean tight binding", "details": "protein: recombinant; tags: N-terminal polyhistidine and DsRed monomer fusion (pET32a); label: CyDye5-dUTP incorporated in the synthesized complementary strand; 3' TTTTT single-stranded linker to array surface; dsDNA, one strand shown", "in_short": "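Transcription factors, each fused N-terminally to a polyhistidine tag and DsRed, were expressed in E. coli BL21-CodonPlus and purified on Ni–NTA. A custom Agilent array was made double-stranded by primer extension with Cy5-dUTP and blocked with 2% BSA. It was incubated with 200 nM protein in PBS, 2% BSA, salmon testes DNA and 50 µM zinc acetate at 25 °C for 1 h, then washed. The binding signal is per-feature fluorescence intensity (arbitrary units) read on an Axon 4000B scanner.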", "values": [{"sequence": "AATAATTGGCACTGCTCCATTAACGTTTTATTACTGACATCGGAGTCACCTAGTGCAG", "binding signal": "9340 fluorescence intensity (a.u.)"}, {"sequence": "ACAGATCAAACTTAACCGTATCAGCTCGATCAATATCCAACGGAGTCACCTAGTGCAG", "binding signal": "10900 fluorescence intensity (a.u.)"}, {"sequence": "GTATCAGTGTATAAGTTTGAGCACCATTTTTCCATGATCTCGGAGTCACCTAGTGCAG", "binding signal": "9200 fluorescence intensity (a.u.)"}, {"sequence": "CCCATACTGACCGCATATATACCAGCAGTTTTCTTCTTTACGGAGTCACCTAGTGCAG", "binding signal": "13700 fluorescence intensity (a.u.)"}, {"sequence": "TAAGACGAATGGTCAAATATGTGCTAAAAAGTCAACGGTGCGGAGTCACCTAGTGCAG", "binding signal": "13100 fluorescence intensity (a.u.)"}, {"sequence": "ACTCGATTCTATTCCACCGCTGCTATGACTCCCTGTGCTACGGAGTCACCTAGTGCAG", "binding signal": "8860 fluorescence intensity (a.u.)"}, {"sequence": "TCTTTCTTTGTTGACTGCCAAACAATTCCCCTTCAGCTCACGGAGTCACCTAGTGCAG", "binding signal": "9580 fluorescence intensity (a.u.)"}, {"sequence": "CTCTTCCACCACCACCCGCCGCCGCCGCCTCCGCCGCGTGCGGAGTCACCTAGTGCAG", "binding signal": "8160 fluorescence intensity (a.u.)"}, {"sequence": "ATGATGCCGTTGACTTTTTGAACAACGTTTGACTATTCGTCGGAGTCACCTAGTGCAG", "binding signal": "32600 fluorescence intensity (a.u.)"}, {"sequence": "TCGGCAGAGCTTGCCAAGACGACCTACGTCACCACCTTGCCGGAGTCACCTAGTGCAG", "binding signal": "8380 fluorescence intensity (a.u.)"}, {"sequence": "ACACAAAATGCACACCATGTCCACCATATCTCCTTACACGCGGAGTCACCTAGTGCAG", "binding signal": "11200 fluorescence intensity (a.u.)"}, {"sequence": "GGGATTTATTGTTGCCTCATTTATTTTTAGGAATTTTCTTCGGAGTCACCTAGTGCAG", "binding signal": "9920 fluorescence intensity (a.u.)"}, {"sequence": "ACTTGGTAAGTATATGCTTGTCGTTTTCAGATCGCCTCACCGGAGTCACCTAGTGCAG", "binding signal": "8920 fluorescence intensity (a.u.)"}, {"sequence": "CACCATTTTCCACATACTCTGCCTAGACGCCGACAAGTGACGGAGTCACCTAGTGCAG", "binding signal": "8580 fluorescence intensity (a.u.)"}, {"sequence": "GGGCTCACAGACCTCTCTCCATCTCTCTTGCTGTGAGGATCGGAGTCACCTAGTGCAG", "binding signal": "9240 fluorescence intensity (a.u.)"}, {"sequence": "ATTACCCGTGATACTCACTCACTCATCCCAGATCATTCCACGGAGTCACCTAGTGCAG", "binding signal": "10800 fluorescence intensity (a.u.)"}, {"sequence": "CTTATGTGTAATGTAATCAAGGTGCCATCTTTGTTTTTTTCGGAGTCACCTAGTGCAG", "binding signal": "11800 fluorescence intensity (a.u.)"}, {"sequence": "CGCCAGCCCTTTTTCTAACTCGATTTTCACAGGAGTTTTTCGGAGTCACCTAGTGCAG", "binding signal": "8560 fluorescence intensity (a.u.)"}, {"sequence": "GCCGCCACCGCCACCTCACAGTCTCACACTGCCATTGCCGCGGAGTCACCTAGTGCAG", "binding signal": "9180 fluorescence intensity (a.u.)"}, {"sequence": "TACTTGCAACCGTCCTAACTATATTACGTACATGGTACCACGGAGTCACCTAGTGCAG", "binding signal": "8790 fluorescence intensity (a.u.)"}, {"sequence": "GAATTTTTTTTGTTAAAGATGTTCATGGTATATTGTCTCGCGGAGTCACCTAGTGCAG", "binding signal": "8490 fluorescence intensity (a.u.)"}, {"sequence": "ACTCGTCGACACTTATACATTTGCATAAACTTTCTAAATTCGGAGTCACCTAGTGCAG", "binding signal": "9820 fluorescence intensity (a.u.)"}, {"sequence": "TAAGAGTTTTTTCTTTTTCAAGGATTATCCTTTCTCATCTCGGAGTCACCTAGTGCAG", "binding signal": "9150 fluorescence intensity (a.u.)"}, {"sequence": "TTCTTGGCAGCCAAGTTGATGCTTTTGGACAGGGTTGACTCGGAGTCACCTAGTGCAG", "binding signal": "8960 fluorescence intensity (a.u.)"}, {"sequence": "CCACCATCCTGACCAGCTGCCAGCTATCATTTTCTGGATACGGAGTCACCTAGTGCAG", "binding signal": "9070 fluorescence intensity (a.u.)"}, {"sequence": "AGCCATATTCTAATTCTTCTTTCTTTCTCTTTTTTTTTTTCGGAGTCACCTAGTGCAG", "binding signal": "9470 fluorescence intensity (a.u.)"}, {"sequence": "CGCCTCCACTACCGCCTGTCCCTTTCGTCCACCACCAGTCCGGAGTCACCTAGTGCAG", "binding signal": "12200 fluorescence intensity (a.u.)"}, {"sequence": "GTGCACTTACATGCCATATCTACTATTTTTACAACTGTAACGGAGTCACCTAGTGCAG", "binding signal": "8590 fluorescence intensity (a.u.)"}, {"sequence": "TAAAGGCCCTTGTCCTTCCGCGTGTTGCAAGTTTTTAATACGGAGTCACCTAGTGCAG", "binding signal": "8210 fluorescence intensity (a.u.)"}, {"sequence": "TATTTTAAGATATTTTCAACGTGGTATCTTTTTCAGCGTTCGGAGTCACCTAGTGCAG", "binding signal": "8600 fluorescence intensity (a.u.)"}, {"sequence": "CGCCACATCCGCCGTTCCCCACGACCACGACCACCGCCGCCGGAGTCACCTAGTGCAG", "binding signal": "8520 fluorescence intensity (a.u.)"}, {"sequence": "GTCGCCTTGCGCCTGCCATTATCCAGGTTCTTGCCTCTTCCGGAGTCACCTAGTGCAG", "binding signal": "9530 fluorescence intensity (a.u.)"}, {"sequence": "TCCTTGTGCCCACTTCTAGCTAGCTTCCAAGTTCCAACCACGGAGTCACCTAGTGCAG", "binding signal": "13700 fluorescence intensity (a.u.)"}, {"sequence": "TATTACTCTTAGTCTGGTGGTATATATGCAGAAAGATATTCGGAGTCACCTAGTGCAG", "binding signal": "12400 fluorescence intensity (a.u.)"}, {"sequence": "TAAACTTCAACTTATTCGGTATTCGTTTTTTGTTAGTACGCGGAGTCACCTAGTGCAG", "binding signal": "9860 fluorescence intensity (a.u.)"}, {"sequence": "CTCCGTTTTCACCCCTATGTATAGTTTATATGTAAATTGCCGGAGTCACCTAGTGCAG", "binding signal": "8830 fluorescence intensity (a.u.)"}, {"sequence": "CTTCTGTTTCTGTAATCGTGTTGAAAAACCAGCATCTCATCGGAGTCACCTAGTGCAG", "binding signal": "8240 fluorescence intensity (a.u.)"}, {"sequence": "CTTCAACTTTCTTGTTTTTCAAACTGTGGTGTGTTTTTGACGGAGTCACCTAGTGCAG", "binding signal": "10500 fluorescence intensity (a.u.)"}, {"sequence": "TCTTCTTCTTGTTTCGGCTTCCGCCTCCGTCCCGCGCGCGCGGAGTCACCTAGTGCAG", "binding signal": "13800 fluorescence intensity (a.u.)"}, {"sequence": "CCACACAATCAACGCCATGATTACATTGCACTTGTCGTATCGGAGTCACCTAGTGCAG", "binding signal": "8390 fluorescence intensity (a.u.)"}, {"sequence": "CATTGATCTGAATACATACTGCTTTCTATGACCTTATCATCGGAGTCACCTAGTGCAG", "binding signal": "8960 fluorescence intensity (a.u.)"}, {"sequence": "CACTAGTTGTTTTGAGTTTTTGTTTGATCCTTCTTCATTTCGGAGTCACCTAGTGCAG", "binding signal": "8470 fluorescence intensity (a.u.)"}]}]}
